PubChem BioAssay AID1159578 – Peter MacCallum Cancer Centre, 2015
Screen: 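siRNA pools altering how lymphatic endothelial cells close a scratch wound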 (primary screen). Cell system: human lymphatic endothelial cells. Knock-down reagent: siRNA pool against human genes, 40 nM. Time to read-out: 48 h after transfection. Measured: 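Cells stained with dye and imaged after a scratch; covered wound area and nuclei counted, duplicates averaged, migration set against mock wells and turned into a robust z-score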. Reading the numbers: migration robust z-score: higher = faster migration into the scratch; nuclei per well: higher = more cells in the well. Rule for the call: 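Migration changed when robust z exceeds 2 or falls below -2 and mean nuclei number is at least 3300; otherwise not called changed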. Meaning of the calls: active = migration changed; inactive = no migration change, or too few cells.
Here is one part, drawn at random, of about 18,000 deposited reagents. Of all reagents, about 1,030 (5.7%) were called active. 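Inactive calls also include pools with fewer than 3300 nuclei, whose migration was not assessed.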 Raw values vary from plate to plate and are shown uncorrected. The numbers tell different reagents against one gene apart. Further read-outs or replicates are left out here.

Gene | reagent no. | migration robust z-score | migration class with cell-count check | nuclei per well, duplicate mean | Call
TM4SF4 | 1 | -0.34 | under 3300 nuclei; migration not judged | 3152 | inactive
H2AB1 | 1 | -0.22 | migration z between -2 and 2; enough cells | 5528 | inactive
SCLY | 1 | 1.86 | migration z between -2 and 2; enough cells | 4798 | inactive
ZNF271P | 1 | -1.06 | migration z between -2 and 2; enough cells | 4617 | inactive
ZSCAN20 | 1 | -0.38 | migration z between -2 and 2; enough cells | 5093 | inactive
TRIM58 | 1 | 1.43 | migration z between -2 and 2; enough cells | 6682 | inactive
EPHA3 | 1 | -0.62 | migration z between -2 and 2; enough cells | 4160 | inactive
CCDC149 | 1 | 0.24 | migration z between -2 and 2; enough cells | 5157 | inactive
MAIP1 | 1 | -1.67 | migration z between -2 and 2; enough cells | 3458 | inactive
VNN1 | 1 | -1.58 | migration z between -2 and 2; enough cells | 5344 | inactive
MYC | 1 | -1.35 | migration z between -2 and 2; enough cells | 4732 | inactive
TIPE2 | 1 | -2.14 | migration z below -2; enough cells | 4994 | active
GGT2P | 1 | 0.18 | migration z between -2 and 2; enough cells | 5895 | inactive
MYO5B | 1 | 1.38 | migration z between -2 and 2; enough cells | 5178 | inactive
DBN1 | 1 | 0.26 | migration z between -2 and 2; enough cells | 6435 | inactive
SLC16A13 | 1 | -0.82 | migration z between -2 and 2; enough cells | 5352 | inactive
GJB3 | 1 | 0.16 | migration z between -2 and 2; enough cells | 5596 | inactive
QTRT2 | 1 | 1.34 | migration z between -2 and 2; enough cells | 5851 | inactive
CCDC12 | 1 | -0.92 | migration z between -2 and 2; enough cells | 7136 | inactive
MED16 | 1 | 1.68 | migration z between -2 and 2; enough cells | 5384 | inactive
ABO | 1 | 1.02 | migration z between -2 and 2; enough cells | 6172 | inactive
INO80E | 1 | 1.52 | migration z between -2 and 2; enough cells | 6127 | inactive
EI24 | 1 | 0.34 | migration z between -2 and 2; enough cells | 6245 | inactive
PRRG4 | 1 | 0.48 | migration z between -2 and 2; enough cells | 4544 | inactive
PCDHB4 | 1 | -0.59 | migration z between -2 and 2; enough cells | 6550 | inactive
NELFE | 1 | 0.18 | migration z between -2 and 2; enough cells | 6374 | inactive

7 entries from above, limited to “migration robust z-score”.
CCDC149: 0.24
MAIP1: -1.67
VNN1: -1.58
MYC: -1.35
TIPE2: -2.14
GGT2P: 0.18
MYO5B: 1.38

Continued.
Gene | reagent no. | migration robust z-score | migration class with cell-count check | nuclei per well, duplicate mean | Call
TSLP | 1 | 0.17 | migration z between -2 and 2; enough cells | 6176 | inactive
IGFBP3 | 1 | -0.73 | migration z between -2 and 2; enough cells | 5799 | inactive
GPR160 | 1 | -0.52 | migration z between -2 and 2; enough cells | 5958 | inactive
ABCD3 | 1 | 0.34 | migration z between -2 and 2; enough cells | 6482 | inactive
ABCB8 | 1 | -0.42 | migration z between -2 and 2; enough cells | 6050 | inactive
FGF22 | 1 | -2.48 | under 3300 nuclei; migration not judged | 2279 | inactive
CTXN1 | 1 | -2.16 | migration z below -2; enough cells | 5431 | active
MVK | 1 | -0.2 | migration z between -2 and 2; enough cells | 6228 | inactive
MSR1 | 1 | 1.45 | migration z between -2 and 2; enough cells | 6078 | inactive
RRP12 | 1 | 1.27 | migration z between -2 and 2; enough cells | 6530 | inactive
HMGN2P46 | 1 | -0.8 | migration z between -2 and 2; enough cells | 4515 | inactive
RXFP4 | 1 | -0.21 | migration z between -2 and 2; enough cells | 7292 | inactive
DENND1C | 1 | -0.96 | migration z between -2 and 2; enough cells | 5470 | inactive
GCNT4 | 1 | 0 | migration z between -2 and 2; enough cells | 5445 | inactive
TMEM177 | 1 | -2.06 | under 3300 nuclei; migration not judged | 3003 | inactive
PFKFB3 | 1 | 0.06 | migration z between -2 and 2; enough cells | 5388 | inactive
DDI2 | 1 | -0.08 | migration z between -2 and 2; enough cells | 5055 | inactive
DDI2 | 2 | 1.27 | migration z between -2 and 2; enough cells | 4829 | inactive
BIRC7 | 1 | -3.11 | migration z below -2; enough cells | 4334 | active
LELP1 | 1 | 1.42 | migration z between -2 and 2; enough cells | 5451 | inactive
ARHGEF25 | 1 | -0.05 | migration z between -2 and 2; enough cells | 5666 | inactive
CASP4 | 1 | -1.25 | migration z between -2 and 2; enough cells | 5870 | inactive
HSD11B2 | 1 | -0.42 | migration z between -2 and 2; enough cells | 5317 | inactive
MAGIX | 1 | -1.31 | migration z between -2 and 2; enough cells | 4297 | inactive
BTBD3 | 1 | 0.58 | migration z between -2 and 2; enough cells | 5695 | inactive
ARNT2 | 1 | 0.24 | migration z between -2 and 2; enough cells | 5308 | inactive
UBE2G2 | 1 | 2.33 | migration z above 2; enough cells | 5719 | active
LTBP3 | 1 | -1.74 | migration z between -2 and 2; enough cells | 4652 | inactive
FUS | 1 | 0.8 | migration z between -2 and 2; enough cells | 4980 | inactive
S100A7P3 | 1 | 0.28 | migration z between -2 and 2; enough cells | 5995 | inactive
KRTAP12-4 | 1 | -0.78 | migration z between -2 and 2; enough cells | 6470 | inactive
CCDC150 | 1 | 0.42 | migration z between -2 and 2; enough cells | 6204 | inactive
TXN2 | 1 | -0.91 | migration z between -2 and 2; enough cells | 3316 | inactive
RMND1 | 1 | -0.36 | migration z between -2 and 2; enough cells | 5687 | inactive
MAGED2 | 1 | 0.06 | migration z between -2 and 2; enough cells | 5952 | inactive
INTS11 | 1 | -0.64 | migration z between -2 and 2; enough cells | 6374 | inactive
SLCO1A2 | 1 | -0.44 | migration z between -2 and 2; enough cells | 7369 | inactive
UBFD1 | 1 | 0.67 | migration z between -2 and 2; enough cells | 5622 | inactive
CSN2 | 1 | 0.32 | migration z between -2 and 2; enough cells | 5779 | inactive
CYSRT1 | 1 | 3.34 | migration z above 2; enough cells | 7574 | active
PTDSS1 | 1 | -2.1 | migration z below -2; enough cells | 3752 | active
ATP6V1E2 | 1 | -1.43 | migration z between -2 and 2; enough cells | 5532 | inactive
FSIP1 | 1 | 0.12 | migration z between -2 and 2; enough cells | 6450 | inactive
HLA-DOB | 1 | 0.52 | migration z between -2 and 2; enough cells | 6096 | inactive
MTHFD2L | 1 | -0.92 | migration z between -2 and 2; enough cells | 6340 | inactive
SMG5 | 1 | 1.25 | migration z between -2 and 2; enough cells | 5650 | inactive
LINC02908 | 1 | -0.67 | migration z between -2 and 2; enough cells | 5436 | inactive
